From the supplement of paper PMC10331698
± gives the standard deviation of the averaged measurements. Most values lie at the level of the controls, where differences are scatter.

Columns and labels:
Assay in all cases: level (log10 ratio to DMSO vehicle control); higher = higher biomarker level / cell amount than vehicle control
[1] = compound: C=CC(=O)OCCC(F)(F)C(F)(F)C(F)(F)C(F)(F)C(F)(F)C(F)(F)C(F)(F)C(F)(F)F [8:2 Fluorotelomer acrylate]; details: 2200 nM; in DMSO
Method: (§1)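 BioMAP Diversity Plus panel of 12 human primary cell co-culture systems (3C, 4H, LPS, SAg, BT, BF4T, BE3C, CASM3C, HDF3CGF, KF3CT, MyoF, Mphg). Compounds were added 1 h before stimulation and left for 24 h (MyoF 48 h; BT 72 h for soluble read-outs or 6 d for IgG). Biomarkers were read by ELISA, cytotoxicity by SRB, PBMC viability and proliferation by Alamar Blue. Each well value was divided by the mean of 8 DMSO control wells on the same plate and log10 transformed; duplicate blinded samples were tested at 4 concentrations.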

[2] = compound: FC(F)(F)C(F)(F)C(F)(F)C(F)(F)C(F)(F)C(F)(F)I [Perfluoro-1-iodohexane]; details: in DMSO
Method: as §1

[3] = compound: C=CC(=O)OCCC(F)(F)C(F)(F)C(F)(F)C(F)(F)F [2-(Perfluorobutyl)ethyl acrylate]; details: 2200 nM; in DMSO
Method: as §1

[4] = compound: O=S(=O)(O)C(F)(F)C(F)(F)C(F)(F)C(F)(F)C(F)(F)C(F)(F)F [Perfluorohexanesulfonic acid]; details: 2200 nM; in DMSO
Method: as §1

[5] = compound: FC(F)(F)C(F)(C(F)(F)F)C(F)(F)C(F)(F)CC1CO1 [3-(Perfluoro-3-methylbutyl)-1,2-propenoxide]; details: in DMSO
Method: as §1

[6] = compound: FC(F)(I)C(F)(F)C(F)(F)C(F)(F)C(F)(F)C(F)(F)I [1,6-Diiodoperfluorohexane]; details: 2200 nM; in DMSO
Method: as §1

[7] = compound: C=CC(=O)OCC(F)(F)C(F)(F)C(F)(F)COC(=O)C=C [1H,1H,5H,5H-Perfluoro-1,5-pentanediol diacrylate]; details: 2200 nM; in DMSO
Method: as §1

[8] = compound: OCCCC(F)(F)C(F)(F)C(F)(F)C(F)(F)C(F)(F)C(F)(F)C(F)(F)F [7:3 Fluorotelomer alcohol]; details: 2200 nM; in DMSO
Method: as §1

[9] = compound: OCC(F)(F)C(F)(F)C(F)(F)CO [Hexafluoroamylene glycol]; details: 2200 nM; in DMSO
Method: as §1

[10] = compound: O=C(Cl)C(F)(F)C(F)(F)C(F)(F)C(=O)Cl [Hexafluoroglutaryl chloride]; details: 2200 nM; in DMSO
Method: as §1

[11] = compound: O=C(O)C=C(C(F)(F)F)C(F)(F)F [3,3-Bis(trifluoromethyl)-2-propenoic acid]; details: in DMSO
Method: as §1

[12] = compound: O=S(=O)(O)CCC(F)(F)C(F)(F)C(F)(F)C(F)(F)F [4:2 Fluorotelomer sulfonic acid]; details: 2200 nM; in DMSO
Method: as §1

[13] = compound: O=C(O)C(F)(F)C(F)(F)C(F)(F)C(F)(F)C(F)(F)C(F)(F)C(F)(F)C(F)(F)C(F)(F)C(F)(F)C(F)(F)C(F)(F)C(F)(F)F [Perfluorotetradecanoic acid]; details: in DMSO
Method: as §1

| Test System | level (log10) [1] | level (log10) ([2]; 2200 nM) | level (log10) ([2]; 6700 nM) | level (log10) ([2]; 20000 nM) | level (log10) ([2]; 60000 nM) | level (log10) [3] | level (log10) [4] | level (log10) ([5]; 740 nM) | level (log10) ([5]; 2200 nM) | level (log10) [6] | level (log10) [7] | level (log10) [8] | level (log10) [9] | level (log10) [10] | level (log10) ([11]; 2200 nM) | level (log10) ([11]; 6700 nM) | level (log10) ([11]; 20000 nM) | level (log10) ([11]; 60000 nM) | level (log10) [12] | level (log10) ([13]; 740 nM) | level (log10) ([13]; 2200 nM) |
| --- | --- | --- | --- | --- | --- | --- | --- | --- | --- | --- | --- | --- | --- | --- | --- | --- | --- | --- | --- | --- | --- |
| HDF3CGF:PAI-I | -0.009 ± 0.037 | -0.016 ± 0.065 | 0.017 ± 0.011 | 0.005 ± 0.031 | -0.041 ± 0.014 | 0.0005 ± 0.036 | 0.004 ± 0.058 | 0.018 ± 0.027 | -0.005 ± 0.0057 | -0.0145 ± 0.056 | -0.0255 ± 0.037 | -0.048 ± 0.023 | 0.0025 ± 0.052 | -0.0385 ± 0.086 | -0.008 ± 0.0099 | -0.0265 ± 0.015 | -0.069 ± 0.0099 | -0.153 ± 0.025 | 0.0225 ± 0.061 | 0.0485 ± 0.0021 | 0.0395 ± 0.015 |
| BE3C:Keratin 8/18 | 0.0025 ± 0.03 | -0.0215 ± 0.022 | -0.007 ± 0.037 | -0.0105 ± 0.0078 | 0.005 ± 0.024 | -0.001 ± 0.04 | -0.006 ± 0.017 | -0.013 ± 0.0028 | 0.0055 ± 0.013 | -0.016 ± 0.054 | -0.0065 ± 0.0021 | 0.0185 ± 0.019 | -0.0025 ± 0.0064 | 0.007 ± 0.0014 | 0.0075 ± 0.016 | -0.001 ± 0.0014 | -0.0025 ± 0.005 | 0.014 ± 0.031 | -0.002 | -0.001 ± 0.023 | 0.0235 ± 0.012 |
| HDF3CGF:CD54/ICAM-1 | 0.0415 ± 0.046 | 0.0015 ± 0.005 | -0.014 ± 0.0099 | -0.0225 ± 0.013 | -0.0255 ± 0.0078 | -0.0125 ± 0.0021 | -0.0075 ± 0.005 | -0.0195 ± 0.0064 | -0.027 ± 0.011 | -0.0285 ± 0.047 | -0.283 ± 0.0064 | -0.003 ± 0.023 | 0.006 ± 0.03 | -0.002 ± 0.011 | 0.032 ± 0.045 | 0.033 ± 0.035 | 0.032 ± 0.027 | 0.0555 ± 0.021 | -0.008 ± 0.0099 | -0.001 ± 0.037 | -0.0195 ± 0.0064 |
| lMphg:CXCL8/IL-8 | 0.0125 ± 0.083 | 0.0015 ± 0.012 | -0.0075 ± 0.039 | 0.0325 ± 0.016 | 0.0585 ± 0.064 | 0.0055 ± 0.022 | 0.0345 ± 0.015 | 0.0445 ± 0.033 | -0.001 ± 0.0014 | 0.017 ± 0.017 | 0.015 ± 0.052 | 0.007 ± 0.011 | -0.007 ± 0.014 | 0.0475 ± 0.0064 | 0.0805 ± 0.0064 | 0.081 ± 0.016 | 0.123 ± 0.014 | 0.201 ± 0.047 | 0.017 ± 0.0085 | 0.008 ± 0.0042 | -0.036 ± 0.0085 |
| LPS:CD141/Thrombomodulin | 0.013 ± 0.12 | 0.005 ± 0.018 | -0.0175 ± 0.0035 | -0.0095 ± 0.025 | -0.0105 ± 0.0092 | 0.008 ± 0.059 | -0.011 ± 0.035 | 0.023 ± 0.024 | 0.017 ± 0.011 | -0.0265 ± 0.022 | 0.063 ± 0.033 | -0.011 ± 0.0042 | 0.081 ± 0.062 | 0.016 ± 0.038 | -0.048 ± 0.064 | -0.0835 ± 0.093 | -0.091 ± 0.14 | -0.026 ± 0.12 | 0.0355 ± 0.026 | 0.035 ± 0.028 | 0.003 ± 0.079 |
| lMphg:CD69 | -0.0365 ± 0.047 | -0.035 ± 0.067 | -0.031 ± 0.048 | -0.0425 ± 0.06 | -0.031 ± 0.045 | 0.0085 ± 0.015 | 0.006 ± 0.03 | -0.014 ± 0.014 | -0.013 ± 0.0014 | 0.0075 ± 0.047 | -0.006 ± 0.034 | -0.014 ± 0.024 | -0.037 ± 0.028 | -0.008 ± 0.016 | -0.057 ± 0.034 | -0.069 ± 0.024 | -0.0915 ± 0.0078 | -0.0275 ± 0.067 | 0 ± 0.0014 | 0.008 ± 0.061 | -0.052 ± 0.03 |
| lMphg:CCL3/MIP-1alpha | 0.0165 ± 0.028 | 0.031 ± 0.0071 | 0.033 ± 0.031 | 0.023 ± 0.0042 | 0.0285 ± 0.033 | 0.0105 ± 0.021 | 0.0245 ± 0.029 | -0.002 ± 0.021 | -0.018 ± 0.023 | -0.0025 ± 0.025 | 0.0125 ± 0.0092 | -0.0025 ± 0.021 | 0.013 ± 0.0014 | -0.0135 ± 0.015 | -0.0315 ± 0.04 | -0.0065 ± 0.071 | -0.0015 ± 0.023 | -0.0075 ± 0.016 | 0.057 ± 0.098 | -0.039 ± 0.033 | -0.029 ± 0.03 |
| BE3C:IL-1alpha | 0.001 ± 0.03 | -0.006 ± 0.017 | -0.0155 ± 0.013 | -0.009 ± 0.0014 | -0.0195 ± 0.013 | 0.007 ± 0.027 | 0.0375 ± 0.061 | 0.0235 ± 0.005 | 0.0085 ± 0.022 | 0.0195 ± 0.035 | 0.016 ± 0.0042 | -0.006 ± 0.055 | -0.005 ± 0.02 | 0.0005 ± 0.0092 | 0.015 ± 0.021 | 0.012 ± 0.02 | 0.0005 ± 0.0092 | 0.001 ± 0.023 | 0.003 ± 0.0085 | 0.012 ± 0.011 | 0.007 ± 0.011 |
| HDF3CGF:CXCL11/I-TAC | 0 ± 0.028 | -0.013 ± 0.018 | -0.0215 ± 0.011 | -0.0305 ± 0.016 | -0.183 ± 0.15 | -0.0245 ± 0.056 | -0.0015 ± 0.023 | -0.004 ± 0.017 | -0.0125 ± 0.057 | -0.043 ± 0.0085 | -0.344 ± 0.096 | -0.0355 ± 0.025 | -0.0305 ± 0.035 | 0.0035 ± 0.053 | -0.019 ± 0.017 | -0.038 ± 0.011 | -0.0555 ± 0.035 | -0.033 ± 0.054 | -0.0415 ± 0.043 | 0.005 ± 0.035 | 0.018 ± 0.028 |
| KF3CT:TIMP-2 | -0.005 ± 0.037 | -0.006 ± 0.0028 | 0.0015 ± 0.013 | 0.0135 ± 0.019 | 0.0035 ± 0.011 | -0.0045 ± 0.056 | 0.012 ± 0.0085 | -0.0095 ± 0.0035 | -0.0025 ± 0.022 | -0.006 ± 0.035 | 0.009 ± 0.013 | -0.0085 ± 0.013 | -0.03 ± 0.0042 | 0.0005 ± 0.013 | 0.0065 ± 0.032 | 0.006 ± 0.048 | -0.016 ± 0.021 | 0.039 ± 0.052 | -0.025 ± 0.014 | -0.023 ± 0.038 | 0.017 ± 0.0071 |
| CASM3C:LDLR | -0.009 ± 0.03 | 0.0125 ± 0.025 | -0.008 ± 0.0057 | 0.0155 ± 0.016 | 0.005 ± 0.028 | -0.0015 ± 0.028 | 0.004 ± 0.03 | 0.019 ± 0.044 | -0.013 ± 0.023 | 0.0385 ± 0.04 | 0.0135 ± 0.029 | 0.002 ± 0.011 | 0.0105 ± 0.016 | -0.008 ± 0.062 | -0.0035 ± 0.012 | -0.008 ± 0.011 | -0.0175 ± 0.0064 | -0.022 ± 0.016 | -0.0015 ± 0.012 | -0.0225 ± 0.0078 | -0.0165 ± 0.0021 |
| 4H:CCL2/MCP-1 | -0.015 ± 0.042 | 0.0205 ± 0.049 | 0.0085 ± 0.015 | -0.008 ± 0.0028 | 0.0145 ± 0.029 | 0.0055 ± 0.074 | -0.0305 ± 0.053 | 0.006 ± 0.14 | -0.043 ± 0.037 | 0.009 ± 0.048 | -0.0135 ± 0.079 | 0.025 ± 0.014 | 0.004 ± 0.035 | -0.0115 ± 0.013 | 0.0095 ± 0.044 | -0.051 ± 0.035 | -0.0675 ± 0.005 | -0.081 ± 0.052 | 0.0135 ± 0.018 | -0.0115 ± 0.071 | -0.031 ± 0.081 |

Another view of part of the listing above:
Test System	level (log10) [1]	level (log10) ([2]; 2200 nM)	level (log10) ([2]; 6700 nM)	level (log10) ([2]; 20000 nM)	level (log10) ([2]; 60000 nM)	level (log10) [3]	level (log10) [4]	level (log10) ([5]; 740 nM)	level (log10) ([5]; 2200 nM)	level (log10) [6]	level (log10) [7]	level (log10) [8]	level (log10) [9]	level (log10) [10]	level (log10) ([11]; 2200 nM)	level (log10) ([11]; 6700 nM)	level (log10) ([11]; 20000 nM)	level (log10) ([11]; 60000 nM)	level (log10) [12]	level (log10) ([13]; 740 nM)	level (log10) ([13]; 2200 nM)
HDF3CGF:CXCL11/I-TAC	0 ± 0.028	-0.013 ± 0.018	-0.0215 ± 0.011	-0.0305 ± 0.016	-0.183 ± 0.15	-0.0245 ± 0.056	-0.0015 ± 0.023	-0.004 ± 0.017	-0.0125 ± 0.057	-0.043 ± 0.0085	-0.344 ± 0.096	-0.0355 ± 0.025	-0.0305 ± 0.035	0.0035 ± 0.053	-0.019 ± 0.017	-0.038 ± 0.011	-0.0555 ± 0.035	-0.033 ± 0.054	-0.0415 ± 0.043	0.005 ± 0.035	0.018 ± 0.028
KF3CT:TIMP-2	-0.005 ± 0.037	-0.006 ± 0.0028	0.0015 ± 0.013	0.0135 ± 0.019	0.0035 ± 0.011	-0.0045 ± 0.056	0.012 ± 0.0085	-0.0095 ± 0.0035	-0.0025 ± 0.022	-0.006 ± 0.035	0.009 ± 0.013	-0.0085 ± 0.013	-0.03 ± 0.0042	0.0005 ± 0.013	0.0065 ± 0.032	0.006 ± 0.048	-0.016 ± 0.021	0.039 ± 0.052	-0.025 ± 0.014	-0.023 ± 0.038	0.017 ± 0.0071
CASM3C:LDLR	-0.009 ± 0.03	0.0125 ± 0.025	-0.008 ± 0.0057	0.0155 ± 0.016	0.005 ± 0.028	-0.0015 ± 0.028	0.004 ± 0.03	0.019 ± 0.044	-0.013 ± 0.023	0.0385 ± 0.04	0.0135 ± 0.029	0.002 ± 0.011	0.0105 ± 0.016	-0.008 ± 0.062	-0.0035 ± 0.012	-0.008 ± 0.011	-0.0175 ± 0.0064	-0.022 ± 0.016	-0.0015 ± 0.012	-0.0225 ± 0.0078	-0.0165 ± 0.0021
